Some of the results follow. Repeats are few or missing, and single values can be far off.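 Imaging used 1,536-well plates; nuclei positive for cleaved PARP by antibody were divided by total DNA-stained nuclei to yield the apoptosis fraction. Doses for screening kept most cells viable, and cell lines differ markedly in resting and induced cleaved-PARP levels.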
test system: WM115; test: cleaved PARP positive nuclei fraction relative to DMSO control; melanoma cells; higher = more apoptosis; settings: library dose: low library concentration; 72 h

| SMILES | cleaved PARP positive nuclei fraction [%] |
| --- | --- |
| CN(NC(=O)CC(=O)NN(C)C(=S)c1ccccc1)C(=S)c1ccccc1 + Cc1cc(SCc2sc(-c3ccc(C(F)(F)F)c(F)c3)nc2C)ccc1OCC(=O)O [GW0742] (first compound 0.006 µM, partner dose 2 µM) | 18.8 |
| C[C@]12O[C@H](C[C@]1(O)CO)n1c3ccccc3c3c4c(c5c6ccccc6n2c5c31)CNC4=O [Lestaurtinib] + COc1ccc(COc2ccc(Cc3cnc(N)nc3N)cc2OC)cc1 [GW2580] (first compound 0.004 µM, partner dose 1 µM) | 167 |
| C[C@]12O[C@H](C[C@]1(O)CO)n1c3ccccc3c3c4c(c5c6ccccc6n2c5c31)CNC4=O [Lestaurtinib] + C[C@@H]1CCN(C(=O)CC#N)C[C@@H]1N(C)c1ncnc2[nH]ccc12 [CP690550] (first compound 0.004 µM, partner dose 1 µM) | 40.3 |
| COCC[n+]1c2c(n(Cc3cnccn3)c1C)C(=O)c1ccccc1C2=O + C/C(O)=C(\C#N)C(=O)Nc1cc(Br)ccc1Br [LFM-A13] (first compound 0.0004 µM, partner dose 2 µM) | 139 |
| C[C@]12O[C@H](C[C@]1(O)CO)n1c3ccccc3c3c4c(c5c6ccccc6n2c5c31)CNC4=O [Lestaurtinib] + OCCn1cc(-c2cnc3nnn(Cc4ccc5ncccc5c4)c3n2)cn1 [PF04217903] (first compound 0.004 µM, partner dose 1 µM) | 43.3 |
| COc1cc([C@@H]2c3cc4c(cc3[C@@H](O[C@@H]3O[C@@H]5CO[C@@H](C)O[C@H]5[C@H](O)[C@H]3O)[C@H]3COC(=O)[C@H]23)OCO4)cc(OC)c1O [etoposide] + Cn1cc(C2=C(c3cn(C4CCN(Cc5ccccn5)CC4)c4ccccc34)C(=O)NC2=O)c2ccccc21 [Enzastaurin] (first compound 0.02 µM, partner dose 0.8 µM) | 80.2 |
| C[As](C)SC[C@H](NC(=O)CC[C@H](N)C(=O)O)C(=O)NCC(=O)O [Darinaparsin] + CN(NC(=O)CC(=O)NN(C)C(=S)c1ccccc1)C(=S)c1ccccc1 [STA4783] (first compound 0.4 µM, partner dose 0.006 µM) | 118 |

test system: WM1716; test: as above; settings: library dose: low library concentration; 72 h

| SMILES | cleaved PARP positive nuclei fraction [%] |
| --- | --- |
| N.N.[Cl][Pt][Cl] [cisplatin] + OCc1c[nH]c2ccccc12 [Indole-3-carbinol] (first compound 1.6 µM, partner dose 0.8 µM) | 94.2 |
| NC1(c2ccc(-c3nc4ccn5c(=O)[nH]nc5c4cc3-c3ccccc3)cc2)CCC1 + N.N.[Cl][Pt][Cl] [cisplatin] (first compound 0.4 µM, partner dose 1.6 µM) | 79.6 |
| Cc1cc(SCc2sc(-c3ccc(C(F)(F)F)c(F)c3)nc2C)ccc1OCC(=O)O + C/C(O)=C(\C#N)C(=O)Nc1cc(Br)ccc1Br [LFM-A13] (first compound 2 µM, partner dose 2 µM) | 86.6 |
| N.N.[Cl][Pt][Cl] [cisplatin] + CN1CCN(c2ccc3nc(-c4c(N)c5c(F)cccc5[nH]c4=O)[nH]c3c2)CC1 [Dovitinib] (first compound 1.6 µM, partner dose 0.1 µM) | 34.9 |
| CC1(C)NC(=O)N(c2ccc([N+](=O)[O-])c(C(F)(F)F)c2)C1=O [nilutamide] + O=C(Oc1ccc([N+](=O)[O-])cc1)N1CCC(C(O)(c2ccc3c(c2)OCO3)c2ccc3c(c2)OCO3)CC1 [JZL184] (first compound 1 µM, partner dose 1 µM) | 66.3 |
| O=C(/C=C/c1cccnc1)NCCCCC1CCN(C(=O)c2ccccc2)CC1 + N.N.[Cl][Pt][Cl] [cisplatin] (first compound 0.01 µM, partner dose 1.6 µM) | 77.2 |
| Cn1cc(C2=C(c3cn(C4CCN(Cc5ccccn5)CC4)c4ccccc34)C(=O)NC2=O)c2ccccc21 [Enzastaurin] + CC(C)CCN1c2nc(Nc3cc(F)c(O)c(F)c3)ncc2N(C)C(=O)C1C [BID1870] (first compound 0.8 µM, partner dose 0.2 µM) | 95.4 |
| Cn1cc(C2=C(c3cn(C4CCN(Cc5ccccn5)CC4)c4ccccc34)C(=O)NC2=O)c2ccccc21 [Enzastaurin] + O=C(Nc1cccc(Cl)c1)Nc1ncc(CCNc2ncnc3ccsc23)s1 [SNS314] (first compound 0.8 µM, partner dose 0.0008 µM) | 60.9 |
| Cc1cc(Nc2cc(N3CCN(C)CC3)nc(Sc3ccc(NC(=O)C4CC4)cc3)n2)n[nH]1 [Tozasertib] + C[As](C)SC[C@H](NC(=O)CC[C@H](N)C(=O)O)C(=O)NCC(=O)O [Darinaparsin] (first compound 0.006 µM, partner dose 0.4 µM) | 53.2 |
| C[C@]1(O)C[C@@H](c2nc(-c3ccc4ccc(-c5ccccc5)nc4c3)c3c(N)nccn32)C1 + Cc1cc(SCc2sc(-c3ccc(C(F)(F)F)c(F)c3)nc2C)ccc1OCC(=O)O [GW0742] (first compound 0.4 µM, partner dose 2 µM) | 101 |
| C[As](C)SC[C@H](NC(=O)CC[C@H](N)C(=O)O)C(=O)NCC(=O)O [Darinaparsin] + Oc1cc(-c2nc(-c3ccccc3)[nH]c2-c2ccncc2)ccc1Cl [L779450] (first compound 0.4 µM, partner dose 0.2 µM) | 50.2 |
| CC(=O)O[C@@]12CO[C@@H]1C[C@H](O)[C@@]1(C)C(=O)[C@H](O)C3=C(C)[C@@H](OC(=O)[C@H](O)[C@@H](NC(=O)OC(C)(C)C)c4ccccc4)C[C@@](O)([C@@H](OC(=O)c4ccccc4)[C@H]21)C3(C)C [Docetaxel] + O=C(Oc1ccc([N+](=O)[O-])cc1)N1CCC(C(O)(c2ccc3c(c2)OCO3)c2ccc3c(c2)OCO3)CC1 [JZL184] (first compound 0.0001 µM, partner dose 1 µM) | 421 |
| C[C@]12O[C@H](C[C@]1(O)CO)n1c3ccccc3c3c4c(c5c6ccccc6n2c5c31)CNC4=O [Lestaurtinib] + CS(=O)(=O)c1ccc(C(=O)Nc2ccc(Cl)c(-c3ccccn3)c2)c(Cl)c1 [vismodegib] (first compound 0.004 µM, partner dose 1 µM) | 172 |
| C[As](C)SC[C@H](NC(=O)CC[C@H](N)C(=O)O)C(=O)NCC(=O)O [Darinaparsin] + COc1ccc2c(c1)CCC1C2CCC2(C)C(NCCCCCCN3C(=O)C=CC3=O)CCC12 [U73122] (first compound 0.4 µM, partner dose 0.4 µM) | 149 |
| C=C(c1ccc(C(=O)O)cc1)c1cc2c(cc1C)C(C)(C)CCC2(C)C [Bexarotene] + C[As](C)SC[C@H](NC(=O)CC[C@H](N)C(=O)O)C(=O)NCC(=O)O [Darinaparsin] (first compound 2 µM, partner dose 0.4 µM) | 127 |
| CC(=O)O[C@@]12CO[C@@H]1C[C@H](O)[C@@]1(C)C(=O)[C@H](O)C3=C(C)[C@@H](OC(=O)[C@H](O)[C@@H](NC(=O)OC(C)(C)C)c4ccccc4)C[C@@](O)([C@@H](OC(=O)c4ccccc4)[C@H]21)C3(C)C [Docetaxel] + N.N.[Cl][Pt][Cl] [cisplatin] (first compound 0.0001 µM, partner dose 1.6 µM) | 227 |
| Cc1cc(Nc2cc(N3CCN(C)CC3)nc(/C=C/c3ccccc3)n2)n[nH]1 + O=C(Oc1ccc([N+](=O)[O-])cc1)N1CCC(C(O)(c2ccc3c(c2)OCO3)c2ccc3c(c2)OCO3)CC1 [JZL184] (first compound 0.04 µM, partner dose 1 µM) | 384 |
| Cn1cnc2c(F)c(Nc3ccc(Br)cc3Cl)c(C(=O)NOCCO)cc21 [selumetinib] + N.N.[Cl][Pt][Cl] [cisplatin] (first compound 0.015 µM, partner dose 1.6 µM) | 94.1 |
| C[As](C)SC[C@H](NC(=O)CC[C@H](N)C(=O)O)C(=O)NCC(=O)O [Darinaparsin] + COc1cc(N2CCC(N3CCN(C)CC3)CC2)ccc1Nc1ncc(Cl)c(Nc2ccccc2S(=O)(=O)C(C)C)n1 [NVP-TAE684] (first compound 0.4 µM, partner dose 0.08 µM) | 71.3 |
| CC1(C)CCC(c2ccc(Cl)cc2)=C(CN2CCN(c3ccc(C(=O)NS(=O)(=O)c4ccc(N[C@H](CCN5CCOCC5)CSc5ccccc5)c(S(=O)(=O)C(F)(F)F)c4)cc3)CC2)C1 + Cn1cc(C2=C(c3cn(C4CCN(Cc5ccccn5)CC4)c4ccccc34)C(=O)NC2=O)c2ccccc21 [Enzastaurin] (first compound 0.4 µM, partner dose 0.8 µM) | 180 |
| NC(=O)c1ccc(N(C(N)=O)c2c(F)cccc2F)nc1-c1ccc(F)cc1F + C[As](C)SC[C@H](NC(=O)CC[C@H](N)C(=O)O)C(=O)NCC(=O)O [Darinaparsin] (first compound 0.4 µM, partner dose 0.4 µM) | 24.3 |
| C[C@]12O[C@H](C[C@]1(O)CO)n1c3ccccc3c3c4c(c5c6ccccc6n2c5c31)CNC4=O [Lestaurtinib] + Oc1nc(-c2ccc(C(F)(F)F)cc2)nc2c1CSCC2 [XAV939] (first compound 0.004 µM, partner dose 2 µM) | 229 |
| CCCCCCCCCCCCCCCCCCOP(=O)([O-])OC1CC[N+](C)(C)CC1 [Perifosine] + Cn1cc(C2=C(c3cn(C4CCN(Cc5ccccn5)CC4)c4ccccc34)C(=O)NC2=O)c2ccccc21 [Enzastaurin] (first compound 0.4 µM, partner dose 0.8 µM) | 74.8 |

A different layout for some results above.
SMILES	cleaved PARP positive nuclei fraction [%]
O=C(/C=C/c1cccnc1)NCCCCC1CCN(C(=O)c2ccccc2)CC1 + N.N.[Cl][Pt][Cl] [cisplatin] (first compound 0.01 µM, partner dose 1.6 µM)	77.2
C=C(c1ccc(C(=O)O)cc1)c1cc2c(cc1C)C(C)(C)CCC2(C)C [Bexarotene] + C[As](C)SC[C@H](NC(=O)CC[C@H](N)C(=O)O)C(=O)NCC(=O)O [Darinaparsin] (first compound 2 µM, partner dose 0.4 µM)	127

Reference: the supplement of paper PMC4604168 (melanoma cell lines)
